From patent US20160257711A1 (BOARD OF TRUSTEES OF THE UNIVERSITY OF ILLINOIS, published 2016)
These are yes or no findings as the source states them, for the method shown. Some results given as binding are weak or reduced against the parent protein; the word gives no strength.

The chains behind the UniProt entries cited, without tags or fusion partners. Where a name states a change or a piece, a line headed by the entry shows the natural chain unless it says otherwise.
UniProt Q14344: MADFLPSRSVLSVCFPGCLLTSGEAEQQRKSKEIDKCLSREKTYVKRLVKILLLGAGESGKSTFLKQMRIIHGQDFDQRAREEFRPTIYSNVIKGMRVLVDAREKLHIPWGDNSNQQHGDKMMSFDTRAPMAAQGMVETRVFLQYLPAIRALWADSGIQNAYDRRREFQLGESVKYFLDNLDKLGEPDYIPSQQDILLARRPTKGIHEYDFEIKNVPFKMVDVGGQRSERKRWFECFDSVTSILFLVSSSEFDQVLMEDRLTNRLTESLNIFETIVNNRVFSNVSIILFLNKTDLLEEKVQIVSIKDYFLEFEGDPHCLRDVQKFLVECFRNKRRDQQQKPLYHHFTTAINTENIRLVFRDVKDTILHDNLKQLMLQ
UniProt P05107: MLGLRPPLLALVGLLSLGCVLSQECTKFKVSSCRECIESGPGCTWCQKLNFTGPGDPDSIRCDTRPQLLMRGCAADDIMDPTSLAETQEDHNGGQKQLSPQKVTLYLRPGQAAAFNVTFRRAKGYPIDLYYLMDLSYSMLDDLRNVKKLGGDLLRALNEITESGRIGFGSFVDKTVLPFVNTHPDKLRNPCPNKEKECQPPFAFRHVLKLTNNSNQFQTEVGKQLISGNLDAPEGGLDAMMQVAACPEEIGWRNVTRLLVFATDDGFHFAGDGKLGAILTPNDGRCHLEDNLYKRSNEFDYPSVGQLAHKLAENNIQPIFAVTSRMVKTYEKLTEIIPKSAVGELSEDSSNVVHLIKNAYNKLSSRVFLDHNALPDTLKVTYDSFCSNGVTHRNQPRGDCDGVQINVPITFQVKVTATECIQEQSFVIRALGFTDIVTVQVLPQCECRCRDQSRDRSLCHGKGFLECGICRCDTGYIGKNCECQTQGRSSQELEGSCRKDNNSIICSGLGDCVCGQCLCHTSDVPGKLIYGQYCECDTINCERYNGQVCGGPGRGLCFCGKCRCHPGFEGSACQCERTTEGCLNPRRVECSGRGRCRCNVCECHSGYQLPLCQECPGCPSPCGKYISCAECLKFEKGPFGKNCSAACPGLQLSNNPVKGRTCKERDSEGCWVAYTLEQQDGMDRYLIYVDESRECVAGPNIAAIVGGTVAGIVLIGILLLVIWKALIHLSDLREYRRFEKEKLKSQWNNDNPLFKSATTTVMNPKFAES

Molecular target: Gα13 (preparation not stated; sentence on β1, β2 and β3 subunits) (Homo sapiens (Human)) (UniProt Q14344)
Experiment: assay and constructs not described

- binding: binds
Substance: integrin β2 subunit (construct not described) (from UniProt P05107 23-769) (receptor)
